Results reported in publication PMC4533939 (Breast Cancer Research : BCR, 2015).
Some peptides are written in HELM: one residue between dots, names in brackets for other building blocks, links after the first $.

Tests used:
[1] = general procedure: Fmoc solid-phase peptide synthesis; Rink amide MBHA; conditions: whole synthesis, scale of the general procedure 100 mg resin
[2] = general procedure: Fmoc solid-phase peptide synthesis; Rink amide MBHA resin (loading 0.6 mmol/g); conditions: whole synthesis

## PEPTIDE1{[FITC5].[Ava].G.G.G.D.P.K.G.G.G.G.G.[am]}$$$$V2.0
[1]
  crude yield: 47 % crude yield
[2]
  isolated mass: 30 mg
[2]; scale of the general procedure 100 mg resin
  isolated yield: 42%
